These are yes or no findings as the source states them, for the method shown. In cells and extracts the contact can be indirect. Binding can be weak; no strength is given. For some of these results: Where a sequence is shown, tags or fusion partners need not be part of it.
B1: Myc-tagged PIASy (enzyme, UniProt Q8N2W9 1-510)
chain: MAAELVEAKNMVMSFRVSDLQMLLGFVGRSKSGLKHELVTRALQLVQFDCSPELFKKIKELYETRYAKKNSEPAPQPHRPLDPLTMHSTYDRAGAVPRTPLAGPNIDYPVLYGKYLNGLGRLPAKTLKPEVRLVKLPFFNMLDELLKPTELVPQNNEKLQESPCIFALTPRQVELIRNSRELQPGVKAVQVVLRICYSDTSCPQEDQYPPNIAVKVNHSYCSVPGYYPSNKPGVEPKRPCRPINLTHLMYLSSATNRITVTWGNYGKSYSVALYLVRQLTSSELLQRLKTIGVKHPELCKALVKEKLRLDPDSEIATTGVRVSLICPLVKMRLSVPCRAETCAHLQCFDAVFYLQMNEKKPTWMCPVCDKPAPYDQLIIDGLLSKILSECEDADEIEYLVDGSWCPIRAEKERSCSPQGAILVLGPSDANGLLPAPSVNGSGALGSTGGGGPVGSMENGKPGADVVDLTLDSSSSSEDEEEEEEEEEDEDEEGPRPKRRCPFQKGLVPAC

The chains behind the UniProt entries cited, without tags or fusion partners. Where a name states a change or a piece, a line headed by the entry shows the natural chain unless it says otherwise.
UniProt Q9NQB0: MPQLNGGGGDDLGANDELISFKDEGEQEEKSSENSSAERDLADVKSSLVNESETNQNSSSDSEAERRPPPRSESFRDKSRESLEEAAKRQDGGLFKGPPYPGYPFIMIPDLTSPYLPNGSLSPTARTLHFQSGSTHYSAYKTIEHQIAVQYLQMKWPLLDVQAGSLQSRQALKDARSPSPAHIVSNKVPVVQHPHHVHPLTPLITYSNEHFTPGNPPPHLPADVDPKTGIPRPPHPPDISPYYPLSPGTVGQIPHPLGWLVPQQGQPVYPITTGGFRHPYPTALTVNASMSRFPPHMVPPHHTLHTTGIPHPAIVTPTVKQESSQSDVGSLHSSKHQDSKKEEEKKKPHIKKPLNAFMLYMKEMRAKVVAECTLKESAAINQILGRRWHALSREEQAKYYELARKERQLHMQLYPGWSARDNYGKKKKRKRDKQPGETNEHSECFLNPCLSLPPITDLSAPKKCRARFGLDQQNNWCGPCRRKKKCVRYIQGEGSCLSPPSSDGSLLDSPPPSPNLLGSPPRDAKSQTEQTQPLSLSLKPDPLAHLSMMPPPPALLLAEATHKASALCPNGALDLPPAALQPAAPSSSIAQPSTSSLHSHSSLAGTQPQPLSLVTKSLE

How the values were obtained:
[1] = biological target: TCF7L2 (endogenous, HCT116) (human (endogenous in HCT116)) (UniProt Q9NQB0); assay: co-IP; endogenous proteins in HCT116 cells; β-Cat and TCF7L2 IPs as positive controls; western blotting
[2] = biological target: HA-tagged TCF7L2 (full length); assay: co-IP; expression plasmids transfected alone or together into HEK293FT cells; lysis in 20 mM Tris pH 7.5, 1 mM EDTA, 1 mM EGTA, 150 mM NaCl, 1% Triton X-100; M2 (anti-flag) beads or antibody-bound dynabeads overnight at 4 °C; western blotting
flag-tagged TCF7L2 = assay: co-IP; TCF7L2 and PIASy-myc co-transfected in HEK293FT with empty vector or PAX1 (HA-PAX1 0, 1, 2 μg; or flag-tagged PAX1 WT or mutants); IP of TCF7L2 with M2 beads (flag-TCF7L2) or anti-HA antibody (HA-TCF7L2); PIASy detected with anti-myc
[3] = biological target: HA-tagged TCF7L2 (full length); assay: as above

Row | binding [1] | binding [2] | binding (flag-tagged TCF7L2) | binding [3] | Molecule
1 | binds | – | – | – | PAX1 (endogenous, HCT116) (from UniProt P15863-1 1-534)
2 | – | binds | binds | binds | B1

— publication PMC11046865
